Measurements from the supplement of paper PMC8728848.
The list shows a part of the results.

Key:
Assay in all cases: glycan array binding signal (z-score within array); higher = stronger binding
Conditions in all cases: glycan notation: IUPAC condensed, linker removed
[1] = molecular target: Fuc(a1-2)Gal
Procedure, shortened: (§1)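 Negative Z-scores can be read as non-binding. The Z-score is calculated within each array and then averaged across arrays of one protein sequence at different concentrations or buffers and across linkers. Arrays, 3228 in all, were curated from the Consortium for Functional Glycomics database and kept only where the protein sequence was available.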

[2] = molecular target: Fuc(a1-2)Gal(b1-3)GalNAc
Procedure, shortened: as §1

[3] = molecular target: Fuc(a1-2)Gal(b1-3)GalNAc(a1-3)[Fuc(a1-2)]Gal(b1-4)Glc
Procedure, shortened: as §1

[4] = molecular target: Fuc(a1-2)Gal(b1-3)GalNAc(a1-3)[Fuc(a1-2)]Gal(b1-4)GlcNAc
Procedure, shortened: as §1

[5] = molecular target: Fuc(a1-2)Gal(b1-3)GalNAc(b1-3)Gal
Procedure, shortened: as §1

[6] = molecular target: Fuc(a1-2)Gal(b1-3)GalNAc(b1-3)Gal(a1-4)Gal(b1-4)Glc
Procedure, shortened: as §1

[7] = molecular target: Fuc(a1-2)Gal(b1-3)GalNAc(b1-4)[Neu5Ac(a2-3)]Gal(b1-4)Glc
Procedure, shortened: as §1

[8] = molecular target: Fuc(a1-2)Gal(b1-3)GlcNAc
Procedure, shortened: as §1

[9] = molecular target: Fuc(a1-2)Gal(b1-3)GlcNAc(b1-2)Man(a1-3)[Fuc(a1-2)Gal(b1-3)GlcNAc(b1-2)Man(a1-6)]Man(b1-4)GlcNAc(b1-4)GlcNAc
Procedure, shortened: as §1

[10] = molecular target: Fuc(a1-2)Gal(b1-3)GlcNAc(b1-2)Man(a1-3)[Fuc(a1-2)Gal(b1-3)GlcNAc(b1-2)Man(a1-6)]Man(b1-4)GlcNAc(b1-4)[Fuc(a1-6)]GlcNAc
Procedure, shortened: as §1

[11] = molecular target: Fuc(a1-2)Gal(b1-3)GlcNAc(b1-3)Gal(b1-4)Glc
Procedure, shortened: as §1

[12] = molecular target: Fuc(a1-2)Gal(b1-3)GlcNAc(b1-3)GalNAc
Procedure, shortened: as §1

[13] = molecular target: Fuc(a1-2)Gal(b1-3)GlcNAc(b1-3)[Fuc(a1-2)Gal(b1-3)GlcNAc(b1-6)]GalNAc
Procedure, shortened: as §1

[14] = molecular target: Fuc(a1-2)Gal(b1-3)GlcNAc(b1-3)[Gal(b1-4)GlcNAc(b1-6)]Gal(b1-4)Glc
Procedure, shortened: as §1

[15] = molecular target: Fuc(a1-2)Gal(b1-3)GlcNAc(b1-3)[Neu5Ac(a2-6)Gal(b1-4)GlcNAc(b1-6)]Gal(b1-4)Glc
Procedure, shortened: as §1

[16] = molecular target: Fuc(a1-2)Gal(b1-3)GlcNAc6S
Procedure, shortened: as §1

[17] = molecular target: Fuc(a1-2)Gal(b1-3)[Fuc(a1-4)]GlcNAc
Procedure, shortened: as §1

[18] = molecular target: Fuc(a1-2)Gal(b1-3)[Fuc(a1-4)]GlcNAc(b1-2)Man(a1-3)[Fuc(a1-2)Gal(b1-3)[Fuc(a1-4)]GlcNAc(b1-2)Man(a1-3)]Man(b1-4)GlcNAc(b1-4)GlcNAc
Procedure, shortened: as §1

[19] = molecular target: Fuc(a1-2)Gal(b1-3)[Fuc(a1-4)]GlcNAc(b1-2)Man(a1-3)[Fuc(a1-2)Gal(b1-3)[Fuc(a1-4)]GlcNAc(b1-2)Man(a1-6)]Man(b1-4)GlcNAc(b1-4)[Fuc(a1-6)]GlcNAc(b1-4)[Fuc(a1-6)]GlcNAc
Procedure, shortened: as §1

[20] = molecular target: Fuc(a1-2)Gal(b1-3)[Fuc(a1-4)]GlcNAc(b1-3)[Fuc(a1-3)[Gal(b1-4)]GlcNAc(b1-6)]Gal(b1-4)Glc
Procedure, shortened: as §1

[21] = molecular target: Fuc(a1-2)Gal(b1-3)[Fuc(a1-4)]GlcNAc(b1-3)[Gal(b1-4)GlcNAc(b1-6)]Gal(b1-4)Glc
Procedure, shortened: as §1

[22] = molecular target: Fuc(a1-2)Gal(b1-4)Fuc(a1-3)]GlcNAc(b1-2)Man(a1-3)[Fuc(a1-2)Gal(b1-4)[Fuc(a1-3)]GlcNAc(b1-2)Man(a1-6)]Man(b1-4)GlcNAc(b1-4)GlcNAc
Procedure, shortened: as §1

[23] = molecular target: Fuc(a1-2)Gal(b1-4)Glc
Procedure, shortened: as §1

[24] = molecular target: Fuc(a1-2)Gal(b1-4)Glc6S
Procedure, shortened: as §1

[25] = molecular target: Fuc(a1-2)Gal(b1-4)GlcNAc
Procedure, shortened: as §1

[26] = molecular target: Fuc(a1-2)Gal(b1-4)GlcNAc(b1-2)Man
Procedure, shortened: as §1

[27] = molecular target: Fuc(a1-2)Gal(b1-4)GlcNAc(b1-2)Man(a1-3)[Fuc(a1-2)Gal(b1-4)GlcNAc(b1-2)Man(a1-6)]Man(b1-4)GlcNAc(b1-4)GlcNAc
Procedure, shortened: as §1

[28] = molecular target: Fuc(a1-2)Gal(b1-4)GlcNAc(b1-2)Man(a1-3)[Fuc(a1-2)Gal(b1-4)GlcNAc(b1-2)Man(a1-6)]Man(b1-4)GlcNAc(b1-4)[Fuc(a1-6)]GlcNAc
Procedure, shortened: as §1

[29] = molecular target: Fuc(a1-2)Gal(b1-4)GlcNAc(b1-2)[Fuc(a1-2)Gal(b1-4)GlcNAc(b1-4)]Man(a1-3)[Fuc(a1-2)Gal(b1-4)GlcNAc(b1-2)Man(a1-6)]Man(b1-4)GlcNAc(b1-4)GlcNAc
Procedure, shortened: as §1

[30] = molecular target: Fuc(a1-2)Gal(b1-4)GlcNAc(b1-3)Gal(b1-4)GlcNAc
Procedure, shortened: as §1

[31] = molecular target: Fuc(a1-2)Gal(b1-4)GlcNAc(b1-3)Gal(b1-4)GlcNAc(b1-2)Man(a1-3)[Fuc(a1-2)Gal(b1-4)GlcNAc(b1-3)Gal(b1-4)GlcNAc(b1-2)Man(a1-6)]Man(b1-4)GlcNAc(b1-4)GlcNAc
Procedure, shortened: as §1

[32] = molecular target: Fuc(a1-2)Gal(b1-4)GlcNAc(b1-3)Gal(b1-4)GlcNAc(b1-3)Gal(b1-4)GlcNAc
Procedure, shortened: as §1

[33] = molecular target: Fuc(a1-2)Gal(b1-4)GlcNAc(b1-3)GalNAc
Procedure, shortened: as §1

[34] = molecular target: Fuc(a1-2)Gal(b1-4)GlcNAc(b1-3)[Fuc(a1-2)Gal(b1-4)GlcNAc(b1-6)]GalNAc
Procedure, shortened: as §1

[35] = molecular target: Fuc(a1-2)Gal(b1-4)GlcNAc(b1-3)[Fuc(a1-3)[Gal(b1-4)]GlcNAc(b1-6)]Gal(b1-4)Glc
Procedure, shortened: as §1

[36] = molecular target: Fuc(a1-2)Gal(b1-4)GlcNAc(b1-6)GalNAc
Procedure, shortened: as §1

[37] = molecular target: Fuc(a1-2)Gal(b1-4)GlcNAc6S
Procedure, shortened: as §1

[38] = molecular target: Fuc(a1-2)Gal(b1-4)[Fuc(a1-3)]GlcNAc
Procedure, shortened: as §1

[39] = molecular target: Fuc(a1-2)Gal(b1-4)[Fuc(a1-3)]GlcNAc(b1-2)Man(a1-3)[Fuc(a1-2)Gal(b1-4)[Fuc(a1-3)]GlcNAc(b1-2)Man(a1-6)]Man(b1-4)GlcNAc(b1-4)[Fuc(a1-6)]GlcNAc
Procedure, shortened: as §1

[40] = molecular target: Fuc(a1-2)Gal(b1-4)[Fuc(a1-3)]GlcNAc(b1-2)[Fuc(a1-2)Gal(b1-4)[Fuc(a1-3)]GlcNAc(b1-4)]Man(a1-3)[Fuc(a1-2)Gal(b1-4)[Fuc(a1-3)]GlcNAc(b1-2)Man(a1-6)]Man(b1-4)GlcNAc(b1-4)GlcNAc
Procedure, shortened: as §1

[41] = molecular target: Fuc(a1-2)Gal(b1-4)[Fuc(a1-3)]GlcNAc(b1-3)Gal(b1-4)[Fuc(a1-3)]GlcNAc
Procedure, shortened: as §1

[42] = molecular target: Fuc(a1-2)Gal(b1-4)[Fuc(a1-3)]GlcNAc(b1-3)Gal(b1-4)[Fuc(a1-3)]GlcNAc(b1-3)Gal(b1-4)[Fuc(a1-3)]GlcNAc
Procedure, shortened: as §1

[43] = molecular target: Fuc(a1-2)Gal(b1-4)[Fuc(a1-3)]GlcNAc(b1-3)GalNAc
Procedure, shortened: as §1

[44] = molecular target: Fuc(a1-2)Gal(b1-4)[Fuc(a1-3)]GlcNAc(b1-3)[Neu5Ac(a2-6)Gal(b1-4)GlcNAc(b1-6)]Gal(b1-4)Glc
Procedure, shortened: as §1

[45] = molecular target: Fuc(a1-2)Gal3S(b1-4)GlcNAc
Procedure, shortened: as §1

B1: Epa11 (Candida glabrata) (protein)
chain: MGSSHHHHHHSSGLVPRGSHMASSNAPNYPVGCSPSVGTQLTPGLSLEVYAYPMDGNNGYCWNATYKDPEFPRSGYLKNKLLGKADGVVGPLNFLAKNKDCSPKVDTLPAGFNFPQPITVTNFTMVLFGYLAPKQSGKYTFKLLADDLLLLNLGATNAFDCCNREATKNNLGEFLAYNLWPNQDKNVTVYLEKGVYYPLRLFFNNRDGGSQLDFSYYFNDSPAPLTDFSGMFFSVPDGAECPARI
glycan array binding signal (z-score) [1]: -0.127 | glycan array binding signal (z-score) [2]: -0.261 | glycan array binding signal (z-score) [3]: -0.518 | glycan array binding signal (z-score) [4]: -0.08 | glycan array binding signal (z-score) [5]: 0.881 | glycan array binding signal (z-score) [6]: -0.421 | glycan array binding signal (z-score) [7]: 0.012 | glycan array binding signal (z-score) [8]: -0.425 | glycan array binding signal (z-score) [9]: 0.284 | glycan array binding signal (z-score) [10]: 0.172 | glycan array binding signal (z-score) [11]: -0.259 | glycan array binding signal (z-score) [12]: -0.178 | glycan array binding signal (z-score) [13]: -0.092 | glycan array binding signal (z-score) [14]: -0.245 | glycan array binding signal (z-score) [15]: -0.474 | glycan array binding signal (z-score) [16]: -0.634 | glycan array binding signal (z-score) [17]: -0.638 | glycan array binding signal (z-score) [18]: -0.183 | glycan array binding signal (z-score) [19]: 0.154 | glycan array binding signal (z-score) [20]: -0.783 | glycan array binding signal (z-score) [21]: -0.337 | glycan array binding signal (z-score) [22]: 2.88 | glycan array binding signal (z-score) [23]: -0.83 | glycan array binding signal (z-score) [24]: 0.065 | glycan array binding signal (z-score) [25]: -0.601 | glycan array binding signal (z-score) [26]: 0.705 | glycan array binding signal (z-score) [27]: -0.265 | glycan array binding signal (z-score) [28]: 0.592 | glycan array binding signal (z-score) [29]: 0.166 | glycan array binding signal (z-score) [30]: -0.92 | glycan array binding signal (z-score) [31]: -0.583 | glycan array binding signal (z-score) [32]: -0.015 | glycan array binding signal (z-score) [33]: -0.679 | glycan array binding signal (z-score) [34]: 0.05 | glycan array binding signal (z-score) [35]: 0.437 | glycan array binding signal (z-score) [36]: 0.516 | glycan array binding signal (z-score) [37]: -0.279 | glycan array binding signal (z-score) [38]: -0.402 | glycan array binding signal (z-score) [39]: -0.282 | glycan array binding signal (z-score) [40]: 0.309 | glycan array binding signal (z-score) [41]: -0.268 | glycan array binding signal (z-score) [42]: -0.593 | glycan array binding signal (z-score) [43]: 1.24 | glycan array binding signal (z-score) [44]: -0.575 | glycan array binding signal (z-score) [45]: -0.383
